The source of these data is PMC7862700.

The list shows a part of the results, in another mix than the full data. For part of these data: At the low end of the ranking, values are background and their order means little. The list shows a part of the results. For part of these data: The source does not settle which construct or isoform was used.

The target of one assay is T1, GABPA (UniProt Q06546).
T1 sequence: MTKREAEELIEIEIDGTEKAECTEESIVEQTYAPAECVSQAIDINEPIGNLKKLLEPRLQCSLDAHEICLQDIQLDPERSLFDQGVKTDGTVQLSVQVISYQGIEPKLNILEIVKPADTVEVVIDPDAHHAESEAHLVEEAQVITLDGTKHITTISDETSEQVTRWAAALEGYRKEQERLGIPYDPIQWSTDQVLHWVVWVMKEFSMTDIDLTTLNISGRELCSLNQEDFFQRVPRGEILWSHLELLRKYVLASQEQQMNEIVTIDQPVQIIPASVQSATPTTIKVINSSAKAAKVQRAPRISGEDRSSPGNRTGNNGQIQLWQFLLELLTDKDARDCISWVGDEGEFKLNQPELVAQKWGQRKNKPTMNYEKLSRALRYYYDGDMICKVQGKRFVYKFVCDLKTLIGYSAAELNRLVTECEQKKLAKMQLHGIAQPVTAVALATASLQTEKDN
In words: DAPPL (digital affinity profiling via proximity ligation, sequencing). As to conditions: 10 mM Tris-HCl pH 7.5, 50 mM NaCl, 1 mM DTT, 4% glycerol, room temperature, 30 min; GST-TFs on glutathione beads, 16-mer random dsDNA library, 0.1% …; high values mean tight binding; double strand, one strand shown; scale: fold enrichment (6-mer frequency, TF over GST control).
Regarding GTAGTG, the binding signal is 0.834.

Regarding CGGTAA, the binding signal was 0.986.

Consider GCGGGA, for which the binding signal is 0.379.

The sequence TGAGAG came in with a binding signal of 0.541.

GGAACC had a binding signal of 0.787.

The sequence GAGAGG had a binding signal of 0.479.

In the case of CGGCCG, the binding signal came out at 0.86.

On to GGATCG, for which the binding signal worked out at 0.587.

With AGTTGG, the binding signal was 0.486.

GGCAGG showed a binding signal of 0.615.

In turn, AGTAAG gave a binding signal of 0.741.

The sequence AGGTTA gave a binding signal of 0.76.

Consider GGTCAG, for which the binding signal turned out to be 0.569.

For the sequence CGCATT, the binding signal was found to be 0.781.

Turning to TACCAG, the binding signal worked out at 0.851.

CCAGCC: the binding signal came out at 0.686.

For the sequence GGTAGG, the binding signal amounted to 0.651.

As for CGCGTG, the binding signal is 0.602.

With GGGTTA, the binding signal came to 0.819.

With AGAGTA, the binding signal is 0.767.

GGTTGG had a binding signal of 0.701.

For CAAGTC, the binding signal was 0.826.

As to GGTACG, the binding signal is 0.822.

Regarding AGTTGA, the binding signal was found to be 0.712.

In turn, AGGTAC came in with a binding signal of 0.949.

GGAGCG showed a binding signal of 0.404.

For the sequence GGTGAC, the binding signal was found to be 0.832.

In turn, AGCGTT came in with a binding signal of 0.866.

As to GGTAAG, the binding signal came out at 0.754.

The sequence GCGAGT came in with a binding signal of 0.533.

GGCGAT yielded a binding signal of 0.817.

TAGGAC displayed a binding signal of 0.872.

Sequence TCAGGC yielded a binding signal of 0.691.

In turn, GAGAGA showed a binding signal of 0.415.

As for TCGGAT, the binding signal came out at 0.481.

Turning to GGGGGG, the binding signal worked out at 0.576.

Consider GGGTGC, for which the binding signal amounted to 0.822.

The sequence AGAGGA displayed a binding signal of 0.629.

On to AACCAG, for which the binding signal came to 0.822.

A further assay has as its target T2, ETS1 (UniProt P14921).
T2 sequence: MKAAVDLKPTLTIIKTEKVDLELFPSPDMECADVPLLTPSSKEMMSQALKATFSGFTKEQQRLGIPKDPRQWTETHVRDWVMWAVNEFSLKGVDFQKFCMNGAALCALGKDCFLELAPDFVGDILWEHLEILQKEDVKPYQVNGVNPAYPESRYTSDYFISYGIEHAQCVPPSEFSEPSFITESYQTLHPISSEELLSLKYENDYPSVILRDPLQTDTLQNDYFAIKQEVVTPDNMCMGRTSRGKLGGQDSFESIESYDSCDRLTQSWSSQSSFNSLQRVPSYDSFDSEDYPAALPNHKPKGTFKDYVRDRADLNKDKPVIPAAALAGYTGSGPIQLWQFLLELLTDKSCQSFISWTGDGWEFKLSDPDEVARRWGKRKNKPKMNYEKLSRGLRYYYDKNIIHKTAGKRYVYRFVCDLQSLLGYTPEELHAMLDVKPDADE
Described as above. As to conditions: 10 mM Tris-HCl pH 7.5, 50 mM NaCl, 1 mM DTT, 4% glycerol, room temperature, 30 min; GST-TFs on glutathione beads, 16-mer random dsDNA library, 0.1% …; high values mean tight binding; double strand, one strand shown; scale: fold enrichment (6-mer frequency, TF over GST control).
With GTAGTG, the binding signal was found to be 0.757.

Take CGGTAA: the binding signal was found to be 0.904.

The sequence GCGGGA came in with a binding signal of 0.368.

TGAGAG returned a binding signal of 0.532.

The sequence GGAACC returned a binding signal of 0.8.

The sequence GAGAGG yielded a binding signal of 0.498.

Consider CGGCCG, for which the binding signal was 0.804.

Turning to GGATCG, the binding signal turned out to be 0.606.

AGTTGG came in with a binding signal of 0.466.

On to GGCAGG, for which the binding signal was 0.596.

As to AGTAAG, the binding signal was 0.747.

Sequence AGGTTA yielded a binding signal of 0.787.

GGTCAG: the binding signal came to 0.525.

In the case of CGCATT, the binding signal turned out to be 0.787.

On to TACCAG, for which the binding signal amounted to 0.867.

Regarding CCAGCC, the binding signal is 0.756.

Sequence GGTAGG showed a binding signal of 0.633.

Sequence CGCGTG had a binding signal of 0.659.

Consider GGGTTA, for which the binding signal stood at 0.855.

On to AGAGTA, for which the binding signal was determined as 0.767.

Sequence GGTTGG returned a binding signal of 0.66.

For the sequence CAAGTC, the binding signal was found to be 0.916.

Sequence GGTACG displayed a binding signal of 0.824.

AGTTGA returned a binding signal of 0.809.

In the case of AGGTAC, the binding signal is 0.935.

Turning to GGAGCG, the binding signal was 0.386.

In turn, GGTGAC displayed a binding signal of 0.762.

In turn, AGCGTT showed a binding signal of 0.961.

Sequence GGTAAG came in with a binding signal of 0.758.

GCGAGT showed a binding signal of 0.509.

The sequence GGCGAT registered a binding signal of 0.846.

In turn, TAGGAC had a binding signal of 0.842.

Regarding TCAGGC, the binding signal is 0.753.

Turning to GAGAGA, the binding signal was found to be 0.433.

TCGGAT registered a binding signal of 0.515.

For the sequence GGGGGG, the binding signal turned out to be 0.597.

With GGGTGC, the binding signal was determined as 0.842.

AGAGGA had a binding signal of 0.674.

For AACCAG, the binding signal was found to be 0.799.

In a further assay the target is T3, SPDEF (UniProt O95238).
T3 sequence: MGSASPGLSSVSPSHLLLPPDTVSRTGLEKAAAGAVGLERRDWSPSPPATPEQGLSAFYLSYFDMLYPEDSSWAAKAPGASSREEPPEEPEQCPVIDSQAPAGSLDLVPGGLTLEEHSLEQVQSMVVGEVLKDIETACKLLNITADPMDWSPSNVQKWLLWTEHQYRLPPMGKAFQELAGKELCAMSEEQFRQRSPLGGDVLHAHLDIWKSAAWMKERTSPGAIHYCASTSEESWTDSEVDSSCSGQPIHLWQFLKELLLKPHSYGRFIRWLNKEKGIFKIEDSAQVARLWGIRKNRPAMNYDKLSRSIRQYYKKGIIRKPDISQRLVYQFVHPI
The assay is described as above. The conditions noted are these: 10 mM Tris-HCl pH 7.5, 50 mM NaCl, 1 mM DTT, 4% glycerol, room temperature, 30 min; GST-TFs on glutathione beads, 16-mer random dsDNA library, 0.1% …; high values mean tight binding; double strand, one strand shown; scale: fold enrichment (6-mer frequency, TF over GST control).
For the sequence GTAGTG, the binding signal was 0.763.

Regarding CGGTAA, the binding signal is 0.96.

The sequence GCGGGA had a binding signal of 0.37.

TGAGAG had a binding signal of 0.598.

Turning to GGAACC, the binding signal stood at 0.939.

Turning to GAGAGG, the binding signal came to 0.494.

For CGGCCG, the binding signal was found to be 0.91.

Regarding GGATCG, the binding signal amounted to 0.622.

For AGTTGG, the binding signal is 0.449.

GGCAGG displayed a binding signal of 0.615.

The sequence AGTAAG came in with a binding signal of 0.707.

Turning to AGGTTA, the binding signal was 0.773.

GGTCAG: the binding signal stood at 0.532.

For CGCATT, the binding signal came to 0.764.

In turn, TACCAG gave a binding signal of 0.84.

With CCAGCC, the binding signal came to 0.792.

Sequence GGTAGG returned a binding signal of 0.641.

In turn, CGCGTG returned a binding signal of 0.629.

In turn, GGGTTA had a binding signal of 0.891.

The sequence AGAGTA gave a binding signal of 0.702.

GGTTGG gave a binding signal of 0.677.

As to CAAGTC, the binding signal turned out to be 0.833.

GGTACG: the binding signal was determined as 0.78.

Turning to AGTTGA, the binding signal was 0.75.

As to AGGTAC, the binding signal worked out at 0.936.

For the sequence GGAGCG, the binding signal came to 0.322.

Consider GGTGAC, for which the binding signal came out at 0.843.

Sequence AGCGTT yielded a binding signal of 0.895.

Consider GGTAAG, for which the binding signal came out at 0.735.

In turn, GCGAGT yielded a binding signal of 0.58.

With GGCGAT, the binding signal was found to be 0.752.

TAGGAC came in with a binding signal of 0.856.

The sequence TCAGGC registered a binding signal of 0.731.

GAGAGA: the binding signal amounted to 0.416.

For TCGGAT, the binding signal came out at 0.55.

The sequence GGGGGG gave a binding signal of 0.523.

Sequence GGGTGC had a binding signal of 0.829.

The sequence AGAGGA displayed a binding signal of 0.611.

For AACCAG, the binding signal came out at 0.785.
